Holding throughout (conditions): 5 µM; treatment: days 7-14 after plating, readout day 21
The subject of test [1] is hPSC-derived cortical neurons (WA09). Kind of test: nucleus area z-score vs screen plate; higher = larger nuclei (more mature).
Test [2] has the same test system. Kind of test: total neurite length per nucleus (MAP2) z-score; higher = more neurite growth.
For test [3] the test system is unchanged. Kind of test: nucleus roundness z-score vs screen plate; higher = rounder nuclei (more mature).
Test [4] shares this test system. Kind of test: KCl-induced FOS+/EGR-1+ double-positive nuclei fraction z-score (KCl minus unstimulated); higher = stronger activity-induced IEG response.

The source of these data is the supplement of paper PMC11348887.

Each structure is given as a SMILES string. Structures can show the parent of a compound that is named as a salt. This is one part of the list. Small differences around the control level are noise.

With `CC(C)(C)C(=O)Oc1ccc(S(=O)(=O)Nc2ccccc2C(=O)NCC(=O)O)cc1` [Sivelestat (ONO-5046)], the nucleus area z-score in test [1] came to 0.718. In addition, in test [2], the “total neurite length per nucleus (z-score)” value came out at 0.35. Besides, in test [3], the nucleus roundness z-score amounted to 0.587. The “KCl-induced FOS+/EGR-1+ double-positive nuclei fraction z-score” value in test [4] was -0.619.
For `COc1cccc2c1C(=O)c1c(O)c3c(c(O)c1C2=O)C[C@@](O)(C(C)=O)C[C@@H]3O[C@H]1C[C@H](N)[C@H](O)[C@H](C)O1` [Daunorubicin HCl] the same measures were -9.83, -4.93, 1.2 and -1.33.
Consider `O=C(COc1ccc(Cl)cc1)NC1CCC(NC(=O)COc2ccc(Cl)cc2)CC1` (stereo not drawn) [ISRIB (trans-isomer)], for which, in test [1], the nucleus area z-score is -0.0627. In test [2], the “total neurite length per nucleus (z-score)” value worked out at 0.273. The same molecule yielded a nucleus roundness z-score in test [3] of 0.301. Further, in test [4], the “KCl-induced FOS+/EGR-1+ double-positive nuclei fraction z-score” value stood at 1.84.
For the molecule `CC[C@@]1(O)C(=O)OCc2c1cc1n(c2=O)Cc2cc3cc(O)ccc3nc2-1` [(S)-10-Hydroxycamptothecin], the nucleus area z-score in test [1] is -1.03. In addition, the “total neurite length per nucleus (z-score)” value in test [2] was -1.95. The molecule also returned a nucleus roundness z-score in test [3] of -2.16. Further, the “KCl-induced FOS+/EGR-1+ double-positive nuclei fraction z-score” value in test [4] is -0.8.
For `O=C1Cc2cc(CCN3CCN(c4nsc5ccccc45)CC3)c(Cl)cc2N1` [Ziprasidone HCl] the same measures were -1.09, -0.278, -0.544 and -0.582.
Molecule `CN(C)C(=O)C(CCN1CCC(O)(c2ccc(Cl)cc2)CC1)(c1ccccc1)c1ccccc1` [Loperamide HCl] returned a nucleus area z-score in test [1] of -1.46. For the same molecule, the “total neurite length per nucleus (z-score)” value in test [2] is -1.41. Besides, the nucleus roundness z-score in test [3] was -0.705. Further, in test [4], the “KCl-induced FOS+/EGR-1+ double-positive nuclei fraction z-score” value was 0.0568.
For `Clc1ccccc1C(c1ccccc1)(c1ccccc1)n1ccnc1` [Clotrimazole] the same measures were -0.624, -0.0312, 0.184 and -0.486.
For `CCCNCC(O)COc1ccccc1C(=O)CCc1ccccc1` (stereo not given) [Propafenone HCl] the same measures were 0.0719, -0.591, -0.308 and -0.448.
In turn, `COc1ccccc1N1CCN(CCN(C(=O)C2CCCCC2)c2ccccn2)CC1` gave a nucleus area z-score in test [1] of 0.0323. Moreover, the “total neurite length per nucleus (z-score)” value in test [2] was 1.01. This molecule also came in with a nucleus roundness z-score in test [3] of 0.409. The “KCl-induced FOS+/EGR-1+ double-positive nuclei fraction z-score” value in test [4] came to 0.335.
For the molecule `CCN1C[C@H](C)n2c(c(O)c3c(=O)n(Cc4ccc(F)c(Cl)c4)nc(C(=O)NC)c32)C1=O`, the nucleus area z-score in test [1] stood at 1.12. Further, the “total neurite length per nucleus (z-score)” value in test [2] is -0.839. In test [3], this molecule gave a nucleus roundness z-score of -0.823. For the same molecule, in test [4], the “KCl-induced FOS+/EGR-1+ double-positive nuclei fraction z-score” value was found to be 0.383.
